Source: publication PMC10455450
These are yes or no findings as the source states them, for the method shown. In cells and extracts the contact can be indirect. Some binding calls cover weakened binding; strength is not graded here. For some assays here: Sequences can lack the tags named with a protein.

Protein sequences, listed by entry. Tags and fused reporters are not part of them.
UniProt Q9NZJ0: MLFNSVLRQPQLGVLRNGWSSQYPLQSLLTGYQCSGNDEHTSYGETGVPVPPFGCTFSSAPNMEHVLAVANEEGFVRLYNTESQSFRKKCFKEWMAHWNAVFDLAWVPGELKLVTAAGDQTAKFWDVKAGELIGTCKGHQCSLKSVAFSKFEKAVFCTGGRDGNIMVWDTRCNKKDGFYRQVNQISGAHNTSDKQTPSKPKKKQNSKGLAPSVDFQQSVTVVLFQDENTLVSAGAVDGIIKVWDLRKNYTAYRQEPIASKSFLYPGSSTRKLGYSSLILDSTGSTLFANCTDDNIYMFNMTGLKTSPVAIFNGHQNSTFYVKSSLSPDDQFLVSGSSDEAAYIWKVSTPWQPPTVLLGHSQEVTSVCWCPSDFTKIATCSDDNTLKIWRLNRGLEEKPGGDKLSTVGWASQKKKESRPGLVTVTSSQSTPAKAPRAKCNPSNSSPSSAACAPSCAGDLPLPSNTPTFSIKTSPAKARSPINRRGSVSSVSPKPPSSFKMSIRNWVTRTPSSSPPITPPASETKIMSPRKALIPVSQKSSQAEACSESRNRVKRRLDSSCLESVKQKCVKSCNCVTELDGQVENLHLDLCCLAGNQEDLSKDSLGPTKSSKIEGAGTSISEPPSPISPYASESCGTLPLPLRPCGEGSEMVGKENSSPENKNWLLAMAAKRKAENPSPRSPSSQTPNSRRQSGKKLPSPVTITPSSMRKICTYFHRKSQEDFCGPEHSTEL

Tests used:
[1] = biological target: T1, VMP1–FLAG (pLenti–hVMP1–FLAG) (human) (UniProt Q96GC9); experiment: co-IP; HEK293T lysates; Anti-FLAG M2 magnetic beads, 2 h at 4 °C; washed with lysis buffer; eluted with Laemmli buffer; immunoblot
T1 sequence: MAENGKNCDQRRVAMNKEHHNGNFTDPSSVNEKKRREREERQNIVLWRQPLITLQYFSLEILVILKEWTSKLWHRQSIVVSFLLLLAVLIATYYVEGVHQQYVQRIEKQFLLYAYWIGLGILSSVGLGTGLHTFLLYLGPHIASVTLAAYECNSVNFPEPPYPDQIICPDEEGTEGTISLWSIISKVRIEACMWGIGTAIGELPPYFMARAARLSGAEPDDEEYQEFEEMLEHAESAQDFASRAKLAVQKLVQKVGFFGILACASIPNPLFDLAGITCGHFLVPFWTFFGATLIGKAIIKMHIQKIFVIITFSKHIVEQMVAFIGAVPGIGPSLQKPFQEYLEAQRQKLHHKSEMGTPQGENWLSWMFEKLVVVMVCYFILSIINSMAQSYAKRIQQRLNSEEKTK

[2] = biological target: FLAG–HA–Cdt2 (cell division cycle protein cdt2, from pcDNA3–2xFLAG–2xHA–Cdt2) (human) (UniProt Q9NZJ0); experiment: as above

Myc–Cdt2 (pcDNA3–Myc–Cdt2) (from UniProt Q9NZJ0 1-730)
binding [1]: binds

B1: Vacuole Membrane Protein 1 (VMP1), endogenous (protein, UniProt Q96GC9 1-406)
chain: T1 sequence
binding [2]: binds
